From publication PMC12607788
Construct, isoform or probe ends are uncertain for at least one entry. Protein sequences can lack the tags named with them.

Target: T1, Fur (Corynebacterium glutamicum ATCC13032) (UniProt Q8NNC4)
T1 sequence (looked up, limits assumed): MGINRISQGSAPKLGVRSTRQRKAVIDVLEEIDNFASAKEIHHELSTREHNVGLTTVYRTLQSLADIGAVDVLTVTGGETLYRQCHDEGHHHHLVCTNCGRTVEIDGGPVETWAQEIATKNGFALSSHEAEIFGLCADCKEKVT
Assay: EMSA
Conditions: Fur 0-14 ug, 90 ng probe, 20 uL, 1 mM EDTA, no metal added, EMSA: 1x binding buffer (10 mM Tris, 50 mM KCl, 1 mM DTT, pH 7.5), plus 1 uL 1 mM KCl, 2.5% glycerol in 20 uL, room temperature 30 min, recombinant protein, protein details: His6 (pET28a, N-terminal), probe letters rebuilt from the primers and the genome

GCCCGCAATAATGTTGAACGTGTCATCGTCGAGGCTACTGTCTGCGATGAGCAGGCCATCGGTGTGCGTGATTGTTGCGGATGCAAGATGCCGGTGGAGATGGCAGAAATGCTCCGCTAAGTTCTCTTCGATTGCGCGTTGTAATTTACCGAGGTCCTTCATAAAACTTCATTTTAGGTATCACAAAGGTGCCATAAGTCGCACCCTTTGTTAGACTGCAAAACTCGCCTTTTGGTTCCCTCAAAAGCAAATCTGAGAATCTTCCCACTTTCACTAGTCTTATCCCGGACCAGCGCACTACAGTTCCTGGATTAGGGGATGTAAAGATCTAAAGCTGGGGGAATACATGG (double strand) [T7SS promoter (PT7SS)]
binding result: binds
